Experimental data reported in PMC11096414.
No constants are given. Whether binding was seen depends on the method and setting. Binding seen in cells or lysates may run through a third protein. Some results given as binding are weak or reduced against the parent protein; the word gives no strength. Where a sequence is shown, tags or fusion partners need not be part of it.

Amino acid sequences for entries named in this document (tags omitted). A change or cut given only in a name is not applied to a line headed by its entry.
UniProt Q7Z434: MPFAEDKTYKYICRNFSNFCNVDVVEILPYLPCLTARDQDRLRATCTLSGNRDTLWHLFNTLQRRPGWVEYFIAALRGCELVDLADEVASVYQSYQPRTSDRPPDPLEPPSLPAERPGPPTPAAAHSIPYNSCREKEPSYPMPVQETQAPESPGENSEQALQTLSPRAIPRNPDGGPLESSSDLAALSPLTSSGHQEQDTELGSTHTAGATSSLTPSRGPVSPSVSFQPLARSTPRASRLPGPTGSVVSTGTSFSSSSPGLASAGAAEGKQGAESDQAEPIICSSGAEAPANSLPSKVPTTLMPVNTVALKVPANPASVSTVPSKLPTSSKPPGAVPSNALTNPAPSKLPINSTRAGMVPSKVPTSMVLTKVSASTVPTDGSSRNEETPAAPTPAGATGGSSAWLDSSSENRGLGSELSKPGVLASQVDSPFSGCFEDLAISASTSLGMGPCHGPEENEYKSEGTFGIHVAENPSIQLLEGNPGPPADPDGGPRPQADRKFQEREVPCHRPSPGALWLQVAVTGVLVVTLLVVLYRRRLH

Molecular target: Flag-tagged MAVS C283A (UniProt Q7Z434)
Assay: co-IP

- binding: binds
B1: GFP-tagged TBK1 (enzyme, UniProt Q9UHD2 1-729)
chain: MQSTSNHLWLLSDILGQGATANVFRGRHKKTGDLFAIKVFNNISFLRPVDVQMREFEVLKKLNHKNIVKLFAIEEETTTRHKVLIMEFCPCGSLYTVLEEPSNAYGLPESEFLIVLRDVVGGMNHLRENGIVHRDIKPGNIMRVIGEDGQSVYKLTDFGAARELEDDEQFVSLYGTEEYLHPDMYERAVLRKDHQKKYGATVDLWSIGVTFYHAATGSLPFRPFEGPRRNKEVMYKIITGKPSGAISGVQKAENGPIDWSGDMPVSCSLSRGLQVLLTPVLANILEADQEKCWGFDQFFAETSDILHRMVIHVFSLQQMTAHKIYIHSYNTATIFHELVYKQTKIISSNQELIYEGRRLVLEPGRLAQHFPKTTEENPIFVVSREPLNTIGLIYEKISLPKVHPRYDLDGDASMAKAITGVVCYACRIASTLLLYQELMRKGIRWLIELIKDDYNETVHKKTEVVITLDFCIRNIEKTVKVYEKLMKINLEAAELGEISDIHTKLLRLSSSQGTIETSLQDIDSRLSPGGSLADAWAHQEGTHPKDRNVEKLQVLLNCMTEIYYQFKKDKAERRLAYNEEQIHKFDKQKLYYHATKAMTHFTDECVKKYEAFLNKSEEWIRKMLHLRKQLLSLTNQCFDIEEEVSKYQEYTNELQETLPQKMFTASSGIKHTMTPIYPSSNTLVEMTLGMKKLKEEMEGVVKELAENNHILERFGSLTMDGGLRNVDCL
